Reference: publication PMC10129328
These are yes or no findings as the source states them, for the method shown. In cells and extracts the contact can be indirect. Some binding calls cover weakened binding; strength is not graded here.

The chains behind the UniProt entries cited, without tags or fusion partners. Residues count along the entry.
UniProt Q4LDE5, residues 2261-3571: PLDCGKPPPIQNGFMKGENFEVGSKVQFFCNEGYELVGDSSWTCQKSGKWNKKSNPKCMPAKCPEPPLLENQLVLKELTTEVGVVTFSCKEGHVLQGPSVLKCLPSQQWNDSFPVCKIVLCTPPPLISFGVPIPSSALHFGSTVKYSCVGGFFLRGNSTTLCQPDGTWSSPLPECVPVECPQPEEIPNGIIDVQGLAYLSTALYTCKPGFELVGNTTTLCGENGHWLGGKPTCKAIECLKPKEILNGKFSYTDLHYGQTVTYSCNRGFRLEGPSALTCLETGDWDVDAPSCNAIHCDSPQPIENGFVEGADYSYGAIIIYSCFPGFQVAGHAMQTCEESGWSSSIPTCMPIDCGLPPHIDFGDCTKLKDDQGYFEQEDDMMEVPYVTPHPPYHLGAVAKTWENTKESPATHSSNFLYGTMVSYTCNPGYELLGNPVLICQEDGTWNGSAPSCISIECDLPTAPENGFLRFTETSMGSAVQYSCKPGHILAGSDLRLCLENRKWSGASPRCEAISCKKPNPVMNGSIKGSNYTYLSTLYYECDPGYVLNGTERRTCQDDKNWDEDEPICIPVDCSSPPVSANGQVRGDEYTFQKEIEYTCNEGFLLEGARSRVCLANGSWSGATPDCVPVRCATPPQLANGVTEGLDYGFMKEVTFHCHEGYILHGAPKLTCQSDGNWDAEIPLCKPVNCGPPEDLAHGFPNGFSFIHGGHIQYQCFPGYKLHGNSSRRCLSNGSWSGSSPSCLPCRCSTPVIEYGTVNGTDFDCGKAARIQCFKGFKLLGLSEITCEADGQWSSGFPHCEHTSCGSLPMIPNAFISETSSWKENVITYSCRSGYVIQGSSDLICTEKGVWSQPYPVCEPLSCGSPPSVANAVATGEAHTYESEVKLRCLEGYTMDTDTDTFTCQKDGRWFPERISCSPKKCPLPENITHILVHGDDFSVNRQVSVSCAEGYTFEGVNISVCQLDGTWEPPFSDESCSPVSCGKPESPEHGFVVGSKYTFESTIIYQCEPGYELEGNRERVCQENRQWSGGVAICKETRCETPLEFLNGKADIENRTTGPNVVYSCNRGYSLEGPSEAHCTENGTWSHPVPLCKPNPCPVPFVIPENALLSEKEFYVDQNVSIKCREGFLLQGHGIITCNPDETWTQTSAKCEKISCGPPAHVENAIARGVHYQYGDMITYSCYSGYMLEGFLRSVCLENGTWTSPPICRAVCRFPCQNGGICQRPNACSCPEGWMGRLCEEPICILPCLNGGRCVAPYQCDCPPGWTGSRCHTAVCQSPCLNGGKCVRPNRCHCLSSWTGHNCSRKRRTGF
UniProt P35590, residues 21-1138: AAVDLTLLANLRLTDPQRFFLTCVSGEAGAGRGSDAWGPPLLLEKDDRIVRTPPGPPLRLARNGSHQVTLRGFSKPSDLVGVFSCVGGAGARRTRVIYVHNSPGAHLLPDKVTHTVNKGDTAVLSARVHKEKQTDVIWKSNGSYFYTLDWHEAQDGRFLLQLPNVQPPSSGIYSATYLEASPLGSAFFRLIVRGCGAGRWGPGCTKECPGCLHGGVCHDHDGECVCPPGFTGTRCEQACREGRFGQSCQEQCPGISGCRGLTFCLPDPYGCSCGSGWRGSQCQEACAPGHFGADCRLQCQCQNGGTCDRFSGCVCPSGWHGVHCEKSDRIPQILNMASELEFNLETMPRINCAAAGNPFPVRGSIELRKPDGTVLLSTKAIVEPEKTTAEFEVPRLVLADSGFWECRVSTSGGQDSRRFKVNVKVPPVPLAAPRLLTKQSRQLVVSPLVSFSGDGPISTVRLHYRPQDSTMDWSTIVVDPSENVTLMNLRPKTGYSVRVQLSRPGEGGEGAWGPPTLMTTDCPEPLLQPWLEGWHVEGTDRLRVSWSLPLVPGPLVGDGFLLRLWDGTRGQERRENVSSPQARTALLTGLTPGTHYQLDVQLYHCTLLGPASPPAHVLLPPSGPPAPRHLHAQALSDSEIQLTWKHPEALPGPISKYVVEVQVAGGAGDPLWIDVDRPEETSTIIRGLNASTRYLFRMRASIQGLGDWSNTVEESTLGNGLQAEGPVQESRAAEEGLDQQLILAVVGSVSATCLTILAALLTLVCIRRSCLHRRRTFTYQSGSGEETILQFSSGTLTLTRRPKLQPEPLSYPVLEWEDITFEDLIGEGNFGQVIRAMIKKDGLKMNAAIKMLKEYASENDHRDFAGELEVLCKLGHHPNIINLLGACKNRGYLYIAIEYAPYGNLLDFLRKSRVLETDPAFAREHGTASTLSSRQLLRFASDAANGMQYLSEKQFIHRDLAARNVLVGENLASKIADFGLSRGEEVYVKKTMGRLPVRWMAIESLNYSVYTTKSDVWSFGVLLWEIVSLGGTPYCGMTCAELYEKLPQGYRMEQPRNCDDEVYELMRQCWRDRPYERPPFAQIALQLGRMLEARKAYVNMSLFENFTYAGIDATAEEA

Tests used:
[1] = target: human SVEP1 (C-Terminus)-StrepII, co-transfected (human) (UniProt Q4LDE5); assay: co-IP; 293T HEK cells co-transfected with human SVEP1 (C-terminus)-StrepII and TIE1-HA or TIE2-HA; Ripa lysates; SVEP1-StrepII captured on Strep-TactinXT 4Flow resin; five washes with Ripa buffer; anti-HA western blot
[2] = target: recombinant C-terminal human SVEP1-Strep-tag II protein, purified (human) (UniProt Q4LDE5); assay: pull-down; 3 µg purified StrepII tagged human SVEP1 C-terminus on 50 µl Strep-TactinXT 4Flow resin in binding buffer (50 mM Tris-HCl pH 7.5, 100 mM NaCl, 0.02% Triton X-100), added to lysate of TIE1-HA or TIE2-HA transfected 293T HEK cells, 2 hr; washed with Ripa buffer; anti-HA western blot; only the target purified

binding [1]: binds
binding [2]: binds
Substance: human TIE1-HA (from UniProt P35590-1 21-1138) (receptor)
